Taken from: PubChem BioAssay AID652272 (Drosophila RNAi Screening Center, 2013)
Screen: 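Genes whose knock-down decreases or increases Hedgehog reporter output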 (primary screen). Cells: Drosophila clone 8 (Cl8) cells. Reagent: long dsRNA against Drosophila genes. Detection: 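Plate reader light from a firefly reporter under a ptc promoter fragment that responds to Hedgehog, with Renilla light as transfection reference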. Direction: firefly Hh reporter signal: higher = more ptc reporter light; Renilla reference signal: higher = more Renilla control light. Active means: 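Hit when the z-score averaged over two replicates is under -2 or over +3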. Meaning of the calls: active = hit: reporter lowered or raised; inactive = not a hit.
The screen tested about 21,000 reagents; below is an unselected part of those with a known target gene and a result. In the full data, 503 (2.4%) are marked active. 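Raw plate light values, not normalised; calls rest on replicate z-scores that were not deposited; hits include reporter decreases as well as increases.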 Entries without a mark were called inactive. A plus sign joins genes that one reagent is predicted to hit. Reagent sequences are not shown. The record does not give: the amount of reagent, the time to read-out.

What is on record for Cpr100A [DRSC14465]?
firefly Hh reporter signal, replicate 1: 94797; firefly Hh reporter signal, replicate 2: 1.35e5; Renilla reference signal, replicate 1: 2951; Renilla reference signal, replicate 2: 6976

Which result is listed for Eip63E [DRSC08658]?
firefly Hh reporter signal, replicate 1: 1.06e5; firefly Hh reporter signal, replicate 2: 1.04e5; Renilla reference signal, replicate 1: 4339; Renilla reference signal, replicate 2: 3546

With Keap1 [DRSC15528], what does the deposit list?
firefly Hh reporter signal, replicate 1: 1.10e5; firefly Hh reporter signal, replicate 2: 77937; Renilla reference signal, replicate 1: 4938; Renilla reference signal, replicate 2: 3349

With sfl [DRSC08828], what was measured?
firefly Hh reporter signal, replicate 1: 1.01e5; firefly Hh reporter signal, replicate 2: 2.41e5; Renilla reference signal, replicate 1: 1969; Renilla reference signal, replicate 2: 8256

What is on record for sfl [DRSC08830]?
firefly Hh reporter signal, replicate 1: 1.38e5; firefly Hh reporter signal, replicate 2: 2.46e5; Renilla reference signal, replicate 1: 2928; Renilla reference signal, replicate 2: 8701

With myd [DRSC14762], how do the results read?
firefly Hh reporter signal, replicate 1: 50080; firefly Hh reporter signal, replicate 2: 49224; Renilla reference signal, replicate 1: 2873; Renilla reference signal, replicate 2: 2327

Which result is listed for myd [DRSC15512]?
firefly Hh reporter signal, replicate 1: 5.59e5; firefly Hh reporter signal, replicate 2: 68096; Renilla reference signal, replicate 1: 29469; Renilla reference signal, replicate 2: 1674

No new results follow: entries from further up.
sfl [DRSC08830] — firefly Hh reporter signal, replicate 1: 1.38e5; firefly Hh reporter signal, replicate 2: 2.46e5; Renilla reference signal, replicate 1: 2928; Renilla reference signal, replicate 2: 8701
myd [DRSC14762] — firefly Hh reporter signal, replicate 1: 50080; firefly Hh reporter signal, replicate 2: 49224; Renilla reference signal, replicate 1: 2873; Renilla reference signal, replicate 2: 2327

Further reagents:
For Shmt [DRSC18264], what was measured?
firefly Hh reporter signal, replicate 1: 61981; firefly Hh reporter signal, replicate 2: 1.62e5; Renilla reference signal, replicate 1: 1481; Renilla reference signal, replicate 2: 6539

What is on record for TotA [DRSC13448]?
firefly Hh reporter signal, replicate 1: 59228; firefly Hh reporter signal, replicate 2: 2.40e5; Renilla reference signal, replicate 1: 12274; Renilla reference signal, replicate 2: 5683

What did the screen give for CG10761 [DRSC17753]?
firefly Hh reporter signal, replicate 1: 1.08e5; firefly Hh reporter signal, replicate 2: 2.67e5; Renilla reference signal, replicate 1: 4064; Renilla reference signal, replicate 2: 9489

What is on record for Dcp-1 [DRSC04609]?
firefly Hh reporter signal, replicate 1: 1.19e5; firefly Hh reporter signal, replicate 2: 78105; Renilla reference signal, replicate 1: 4509; Renilla reference signal, replicate 2: 3719

For Mst77F [DRSC11871], what was measured?
firefly Hh reporter signal, replicate 1: 1.54e5; firefly Hh reporter signal, replicate 2: 1.28e5; Renilla reference signal, replicate 1: 5484; Renilla reference signal, replicate 2: 3916

With MstProx + Mst84Da [DRSC12597], what was measured?
firefly Hh reporter signal, replicate 1: 95526; firefly Hh reporter signal, replicate 2: 1.14e5; Renilla reference signal, replicate 1: 3283; Renilla reference signal, replicate 2: 3334

How did the screen score Nhe3 [DRSC03380]?
firefly Hh reporter signal, replicate 1: 1.11e5; firefly Hh reporter signal, replicate 2: 62221; Renilla reference signal, replicate 1: 2660; Renilla reference signal, replicate 2: 5831

With l(3)72Dp [DRSC10477], what does the deposit list?
firefly Hh reporter signal, replicate 1: 1.18e5; Renilla reference signal, replicate 1: 5763; Renilla reference signal, replicate 2: 3789

For CG42237 [DRSC19891], what does the deposit list?
firefly Hh reporter signal, replicate 1: 97780; firefly Hh reporter signal, replicate 2: 2.95e5; Renilla reference signal, replicate 1: 2345; Renilla reference signal, replicate 2: 10269

Which result is listed for daed [DRSC00299]?
firefly Hh reporter signal, replicate 1: 12201; firefly Hh reporter signal, replicate 2: 56786; Renilla reference signal, replicate 1: 852; Renilla reference signal, replicate 2: 2123

For Slbp [DRSC16863], how do the results read?
firefly Hh reporter signal, replicate 1: 76539; firefly Hh reporter signal, replicate 2: 89842; Renilla reference signal, replicate 1: 2602; Renilla reference signal, replicate 2: 2912

For Smn [DRSC10223], what was measured?
firefly Hh reporter signal, replicate 1: 86267; firefly Hh reporter signal, replicate 2: 39024; Renilla reference signal, replicate 1: 3173; Renilla reference signal, replicate 2: 1328

How did the screen score CG1172 [DRSC12182]?
firefly Hh reporter signal, replicate 1: 1.08e5; firefly Hh reporter signal, replicate 2: 2.25e5; Renilla reference signal, replicate 1: 4024; Renilla reference signal, replicate 2: 6453

How did the screen score CG9512 [DRSC20189]?
firefly Hh reporter signal, replicate 1: 1.24e5; firefly Hh reporter signal, replicate 2: 81511; Renilla reference signal, replicate 1: 2821; Renilla reference signal, replicate 2: 2347
